This assay deals with HEK293A TEAD-LUC reporter. Put plainly: TEAD-luciferase reporter activity (YAP activation), robust Z score vs plate; higher = stronger YAP/TEAD activation. The settings on record: 24 h.

Structures can show the parent of a compound that is named as a salt. The list shows a part of the results. Repeats in this data set agree poorly, so a single value says little.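 The human kidney-derived cells carry a stably integrated construct of eight TEAD-binding elements driving luciferase, read by luminescence in a drug-repurposing library screen. A compound counts as a hit when its signal is more than five robust Z scores above the plate mean.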

As to `Cc1ccc(-c2nc3c(O)cccc3s2)cc1`, the TEAD-luciferase reporter activity reads like this: (compound concentration: 200 nM) inactive: -0.597; (compound concentration: 2 uM) inactive: 0.585; (compound concentration: 10 uM) inactive: -0.541.
The corresponding values for `O=c1sn(-c2cccc3ccccc23)c(=O)n1Cc1ccccc1` [Tideglusib] are inactive: -0.875, inactive: 1.09 and inactive: 3.14.
Turning to `COc1cc(C=CC(=O)N2CCN(CC(=O)NC(C)C)CC2)cc(OC)c1OC`, the TEAD-luciferase reporter activity (compound concentration: 200 nM) is inactive: -0.0729, the TEAD-luciferase reporter activity (compound concentration: 2 uM) was inactive: -1.35 and the TEAD-luciferase reporter activity (compound concentration: 10 uM) was inactive: -1.19.
On the same counts, the results for `CC(=O)OCC(=O)[C@@]1(O)[C@H](C)CC2[C@@H]3CC[C@H]4CC(=O)CC[C@]4(C)C3=CC[C@@]21C` (stereo partly drawn) are inactive: -1.1, inactive: -1.88 and inactive: -0.449.
On to `COc1ccccc1OCC(O)CN1CCN(CC(=O)Nc2c(C)cccc2C)CC1` (stereo not drawn) [Ranolazine dihydrochloride], for which the TEAD-luciferase reporter activity reads like this: (compound concentration: 200 nM) inactive: -0.194; (compound concentration: 10 uM) inactive: -0.422.
Turning to `COc1ccccc1OCC(O)CN1CCN(CC(=O)Nc2c(C)cccc2C)CC1` (stereo not drawn) [ranolazine], the TEAD-luciferase reporter activity (compound concentration: 2 uM) was inactive: -1.05.
Consider `CC(C)(C)NC(=O)Nc1nc2nc(Nc3ccc4nsnc4c3)ncc2cc1-c1c(Cl)cccc1Cl`, for which the TEAD-luciferase reporter activity by setting is: (compound concentration: 200 nM) inactive: -0.821; (compound concentration: 2 uM) inactive: -2.14; (compound concentration: 10 uM) inactive: -0.288.
In the case of `O=C1C(CCS(=O)c2ccccc2)C(=O)N(c2ccccc2)N1c1ccccc1` (stereo not drawn) [Sulfinpyrazone], the TEAD-luciferase reporter activity (compound concentration: 200 nM) was inactive: 0.702 and the TEAD-luciferase reporter activity (compound concentration: 10 uM) is inactive: -1.69.
With `O=C1C(CCS(=O)c2ccccc2)C(=O)N(c2ccccc2)N1c1ccccc1` (stereo not drawn) [sulfinpyrazone], under “compound concentration: 2 uM”, the TEAD-luciferase reporter activity was inactive: -0.32.
As to `COc1ccccc1N1CCN(C(=O)c2cccc3ccccc23)CC1`, the TEAD-luciferase reporter activity was inactive: 0.769 (compound concentration: 200 nM), inactive: -0.554 (compound concentration: 2 uM) and active: 15.3 (compound concentration: 10 uM).
Take `CC(C)CCN1CCCC12Cc1ccccc1CNC2=O` (stereo not drawn): the TEAD-luciferase reporter activity (compound concentration: 200 nM) is active: 5.06 and the TEAD-luciferase reporter activity (compound concentration: 10 uM) was active: 5.33.
As to `CCCCOc1cc(C(=O)OCCN(CC)CC)ccc1N` [Oxybuprocaine hydrochloride], the TEAD-luciferase reporter activity reads like this: (compound concentration: 200 nM) inactive: -0.379; (compound concentration: 2 uM) inactive: -0.924; (compound concentration: 10 uM) inactive: 1.29.
Regarding `O=C(O)c1ccccc1O` [salicylic acid], the TEAD-luciferase reporter activity (compound concentration: 2 uM) was inactive: 1.2.
Regarding `O=C(O)c1ccccc1O` [salicylic acid, Orenova], the TEAD-luciferase reporter activity is inactive: -0.545 (compound concentration: 200 nM), inactive: 0.15 (compound concentration: 2 uM) and inactive: -0.183 (compound concentration: 10 uM).
On to `COc1ccc(C=Cc2cc(OC)c(OC)c(OC)c2)cc1O` [Combretastatin A-4], for which the TEAD-luciferase reporter activity was inactive: 1.49 (compound concentration: 200 nM), inactive: 1.4 (compound concentration: 2 uM) and inactive: 2.41 (compound concentration: 10 uM).
`NCCCS(=O)(=O)O` [Tramiprosate]: the TEAD-luciferase reporter activity is inactive: 0.794 (compound concentration: 200 nM), inactive: 0.367 (compound concentration: 2 uM) and inactive: 1.08 (compound concentration: 10 uM).
As for `CCC[C@@H]1C[C@@H](C(=O)N[C@@H]([C@H]2O[C@H](SC)[C@H](O)[C@@H](O)[C@H]2O)[C@H](C)Cl)N(C)C1` [Clindamycin hydrochloride], the TEAD-luciferase reporter activity (compound concentration: 2 uM) was inactive: 0.945.
With `COc1ccc2[nH]cc(CCNC(C)=O)c2c1` [melatonin, Alliance], the TEAD-luciferase reporter activity by setting is: (compound concentration: 200 nM) inactive: -0.264; (compound concentration: 2 uM) inactive: -1.22; (compound concentration: 10 uM) inactive: 0.126.
Consider `C[n+]1cccc(C(=O)O)c1`, for which the TEAD-luciferase reporter activity is, setting by setting: (compound concentration: 200 nM) inactive: -1.44; (compound concentration: 10 uM) inactive: -1.59.
`C[n+]1cccc(C(=O)O)c1` [Trigonelline]: the TEAD-luciferase reporter activity (compound concentration: 2 uM) is inactive: -2.04.
Take `CC(=O)Oc1ccccc1C(=O)Oc1cccc(CO[N+](=O)[O-])c1`: the TEAD-luciferase reporter activity is, setting by setting: (compound concentration: 200 nM) inactive: -0.231; (compound concentration: 2 uM) inactive: -0.23; (compound concentration: 10 uM) inactive: 0.188.
The corresponding values for `CC(C)c1c(C(=O)Nc2ccccc2)c(-c2ccccc2)c(-c2ccc(F)cc2)n1CC[C@@H](O)C[C@@H](O)CC(=O)O` [Atorvastatin calcium] are inactive: -0.38, inactive: 0.0899 and inactive: 1.23.
As for `COc1cc2nc(N3CCN(C(=O)[C@@H](C)OC)CC3)nc(N)c2cc1OC` [metazosin], the TEAD-luciferase reporter activity is inactive: 0.148 (compound concentration: 200 nM), inactive: 0.22 (compound concentration: 2 uM) and inactive: 0.966 (compound concentration: 10 uM).
Consider `CN(C)CCCCNc1c2ccccc2nc2cccc([N+](=O)[O-])c12`, for which the TEAD-luciferase reporter activity (compound concentration: 200 nM) was inactive: 0.0385, the TEAD-luciferase reporter activity (compound concentration: 2 uM) is inactive: 0.501 and the TEAD-luciferase reporter activity (compound concentration: 10 uM) was inactive: 0.697.
`CCn1c(-c2ccc(OC)c(OC)c2)c/c(=N\c2c(C)cc(C)cc2C)n(C)c1=O`: the TEAD-luciferase reporter activity was inactive: -0.148 (compound concentration: 200 nM), inactive: -0.272 (compound concentration: 2 uM) and inactive: -1.74 (compound concentration: 10 uM).
`N=C(N)NCCC[C@H](NC(=O)[C@@H]1CSSC[C@H](NC(=O)[C@H](Cc2ccc3ccccc3c2)NC(=O)[C@H](CCCNC(=N)N)NC(=O)[C@H](CCCNC(=N)N)NC(=O)c2ccc(F)cc2)C(=O)N[C@@H](Cc2ccc(O)cc2)C(=O)N[C@@H](CCCNC(N)=O)C(=O)N[C@@H](CCCCN)C(=O)N[C@@H](CCCCN)C(=O)N2CCC[C@H]2C(=O)N[C@@H](Cc2ccc(O)cc2)C(=O)N[C@@H](CCCNC(=N)N)C(=O)N[C@@H](CCCNC(N)=O)C(=O)N1)C(N)=O`: the TEAD-luciferase reporter activity is, setting by setting: (compound concentration: 200 nM) inactive: -0.516; (compound concentration: 2 uM) inactive: 1.55; (compound concentration: 10 uM) inactive: 0.325.
As to `CCCCC1C(=O)NN(c2ccccc2)C1=O` (stereo not drawn), the TEAD-luciferase reporter activity is inactive: -1.14 (compound concentration: 200 nM), inactive: -1.27 (compound concentration: 2 uM) and inactive: 1.61 (compound concentration: 10 uM).
For `CCCC1(C2=NCCN2)Cc2cccc3c2N1CC3` (stereo not drawn), the TEAD-luciferase reporter activity is, setting by setting: (compound concentration: 200 nM) inactive: 0.0774; (compound concentration: 2 uM) inactive: -1.62; (compound concentration: 10 uM) inactive: -1.67.
Regarding `CC1CC(OC(=O)C(O)c2ccccc2)CC(C)(C)N1C` (stereo not drawn), the TEAD-luciferase reporter activity reads like this: (compound concentration: 200 nM) inactive: 1.58; (compound concentration: 2 uM) inactive: -0.529; (compound concentration: 10 uM) inactive: -0.731.

The values above are taken from the supplement of paper PMC10735217.
